Reference: PubChem BioAssay AID652272 (Drosophila RNAi Screening Center, 2013)
The deposit covers about 21,000 reagents; this is an unselected part of those with a known target gene and a result. In the full data, 503 (2.4%) got an active call. 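Raw plate light values, not normalised; calls rest on replicate z-scores that were not deposited; hits include reporter decreases as well as increases.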 Unmarked entries are inactive. A plus sign joins genes that one reagent is predicted to hit. Not given: the amount of reagent, the time to read-out.

Aim: 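Finding fly genes that regulate Hedgehog signal transduction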 (primary screen)
System: Drosophila clone 8 (Cl8) cells
Reagents: long dsRNA against Drosophila genes
Measured: 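Plate reader light from a firefly reporter under a ptc promoter fragment that responds to Hedgehog, with Renilla light as transfection reference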
Direction: firefly Hh reporter signal: higher = more ptc reporter light; Renilla reference signal: higher = more Renilla control light
Call rule: 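Hit when the z-score averaged over two replicates is under -2 or over +3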
Calls: active = hit: reporter lowered or raised; inactive = not a hit

With knock-down of CG15710 [DRSC06581], the record shows firefly Hh reporter signal, replicate 1 = 66689; firefly Hh reporter signal, replicate 2 = 54115; Renilla reference signal, replicate 1 = 2032; Renilla reference signal, replicate 2 = 4073.
For sw + Sdic4 + Sdic3 + 2 more [DRSC20696] the deposit lists firefly Hh reporter signal, replicate 1 = 1.02e5; firefly Hh reporter signal, replicate 2 = 3.42e5; Renilla reference signal, replicate 1 = 3395; Renilla reference signal, replicate 2 = 12491.
With knock-down of fd102C [DRSC17203], the record shows firefly Hh reporter signal, replicate 1 = 1.27e5; firefly Hh reporter signal, replicate 2 = 3.03e5; Renilla reference signal, replicate 1 = 4248; Renilla reference signal, replicate 2 = 11042.
Depletion of Taf12L [DRSC00467] resulted in: firefly Hh reporter signal, replicate 1 = 1.17e5; firefly Hh reporter signal, replicate 2 = 1.03e5; Renilla reference signal, replicate 1 = 2400; Renilla reference signal, replicate 2 = 7665.
For RpS18 [DRSC07540] the deposit lists firefly Hh reporter signal, replicate 1 = 26656 (active); firefly Hh reporter signal, replicate 2 = 20106; Renilla reference signal, replicate 1 = 1258; Renilla reference signal, replicate 2 = 2388.
Ctr1B + Poxm [DRSC16245] showed firefly Hh reporter signal, replicate 1 = 83176; firefly Hh reporter signal, replicate 2 = 1.13e5; Renilla reference signal, replicate 1 = 3648; Renilla reference signal, replicate 2 = 3300.
After knock-down of CG4678 [DRSC19911], the record shows firefly Hh reporter signal, replicate 1 = 82555; firefly Hh reporter signal, replicate 2 = 2.12e5; Renilla reference signal, replicate 1 = 2816; Renilla reference signal, replicate 2 = 8274.
After knock-down of CG4678 [DRSC19912], the screen gave firefly Hh reporter signal, replicate 1 = 56225; firefly Hh reporter signal, replicate 2 = 3.64e5; Renilla reference signal, replicate 1 = 2179; Renilla reference signal, replicate 2 = 13858.
For POSH [DRSC07499] the deposit lists firefly Hh reporter signal, replicate 1 = 1.10e5; firefly Hh reporter signal, replicate 2 = 67361; Renilla reference signal, replicate 1 = 3392; Renilla reference signal, replicate 2 = 5317.
CG33506 [DRSC05981] showed firefly Hh reporter signal, replicate 1 = 1.41e5; firefly Hh reporter signal, replicate 2 = 94036; Renilla reference signal, replicate 1 = 5429; Renilla reference signal, replicate 2 = 1274.
After knock-down of Blos1 [DRSC05970] the results were firefly Hh reporter signal, replicate 1 = 59852; firefly Hh reporter signal, replicate 2 = 46549; Renilla reference signal, replicate 1 = 1701; Renilla reference signal, replicate 2 = 3440.
CG5001 [DRSC00673] gave firefly Hh reporter signal, replicate 1 = 1.40e5; firefly Hh reporter signal, replicate 2 = 1.07e5; Renilla reference signal, replicate 1 = 3591; Renilla reference signal, replicate 2 = 2890.
Knock-down of SdhD [DRSC14215] resulted in: firefly Hh reporter signal, replicate 1 = 5.42e5; firefly Hh reporter signal, replicate 2 = 1.13e5; Renilla reference signal, replicate 1 = 29192; Renilla reference signal, replicate 2 = 3990.
Silencing of heix [DRSC03542] came out at: firefly Hh reporter signal, replicate 1 = 39964; firefly Hh reporter signal, replicate 2 = 35511; Renilla reference signal, replicate 1 = 2380; Renilla reference signal, replicate 2 = 1692.
Depletion of CG13807 [DRSC08342] gave: firefly Hh reporter signal, replicate 1 = 77352; firefly Hh reporter signal, replicate 2 = 39045; Renilla reference signal, replicate 1 = 2757; Renilla reference signal, replicate 2 = 3388.
Knock-down of CG7530 [DRSC16255] came out at: firefly Hh reporter signal, replicate 1 = 1.55e5; firefly Hh reporter signal, replicate 2 = 1.69e5; Renilla reference signal, replicate 1 = 5910; Renilla reference signal, replicate 2 = 6045.
I-2 [DRSC11194] showed firefly Hh reporter signal, replicate 1 = 28041; firefly Hh reporter signal, replicate 2 = 38000; firefly Hh reporter signal, replicate 3 = 24258; Renilla reference signal, replicate 1 = 3746; Renilla reference signal, replicate 2 = 2263.
For Or30a [DRSC03385], the entry reads firefly Hh reporter signal, replicate 1 = 88502; firefly Hh reporter signal, replicate 2 = 68619; Renilla reference signal, replicate 1 = 2442; Renilla reference signal, replicate 2 = 5733.
Silencing of CG8067 [DRSC07065] came out at: firefly Hh reporter signal, replicate 1 = 1.17e5; firefly Hh reporter signal, replicate 2 = 94192; Renilla reference signal, replicate 1 = 5138; Renilla reference signal, replicate 2 = 3868.
Against CG8066 [DRSC16374] the deposit lists firefly Hh reporter signal, replicate 1 = 62576; firefly Hh reporter signal, replicate 2 = 95443; Renilla reference signal, replicate 1 = 1445; Renilla reference signal, replicate 2 = 2518.
Against Polr3E [DRSC11880], the entry reads firefly Hh reporter signal, replicate 1 = 52960; firefly Hh reporter signal, replicate 2 = 87131; Renilla reference signal, replicate 1 = 2312; Renilla reference signal, replicate 2 = 3079.

A portion of the results above, as a working copy:
CG33506 [DRSC05981] → firefly Hh reporter signal, replicate 1 = 1.41e5; firefly Hh reporter signal, replicate 2 = 94036; Renilla reference signal, replicate 1 = 5429; Renilla reference signal, replicate 2 = 1274
Blos1 [DRSC05970] → firefly Hh reporter signal, replicate 1 = 59852; firefly Hh reporter signal, replicate 2 = 46549; Renilla reference signal, replicate 1 = 1701; Renilla reference signal, replicate 2 = 3440
CG5001 [DRSC00673] → firefly Hh reporter signal, replicate 1 = 1.40e5; firefly Hh reporter signal, replicate 2 = 1.07e5; Renilla reference signal, replicate 1 = 3591; Renilla reference signal, replicate 2 = 2890
